From patent US10702592B2, “Peptides and combination of peptides for use in immunotherapy against NHL and other cancers” (Immatics Biotechnologies GmbH, priority 2016, dated 2020) come the findings set out here.

For one series, the system named is NHL samples. Briefly: Identification and label-free LC-MS quantitation of HLA-presented peptides: presentation profile/score, NHL vs normal tissues. To be noted: NHL tumors compared to a panel of normal tissues. Set-up: species or system human; key: very highly over-presented on tumors compared to a panel of normal tissues (+++); highly over-presented on tumors compared to a panel of normal tissues (++); over-presented on tumors compared to a panel of normal tissues (+).

Series [1] has as its system other tumor types (tumor samples vs normal tissues). In words: LC-MS detection / over-presentation of peptides on additional tumor types. Conditions: for Other relevant organs/diseases: additional tumor types on which the peptide was found: over-presented on more than 5% of measured tumor samples, or presented on more than 5% with ratio of geometric means tumor vs normal tissues larger than 3; for Other relevant organs / diseases (additional tumor types with over-presentation): over-presented on >5% of measured tumor samples, or presented on >5% with ratio of geometric means tumor vs normal >3. Set-up: species or system human.

On to “30 (ILSTLDVEL; listed as Homo sapiens) [compound 30]”, for which the “Peptide Presentation” value with NHL samples was “+++”. In series [1], the Other relevant organs/diseases entry is “CRC, Melanoma, Uterine Cancer” and the “Other relevant organs / diseases (additional tumor types with over-presentation)” value is “SCLC, Urinary Bladder Cancer, Gallbladder Cancer, Bile Duct Cancer, AML, HNSCC”.

As for “111 (YLLDTLLSL; listed as Homo sapiens) [compound 111]”, the “Peptide Presentation” value in the series with NHL samples was “+++”. The “Other relevant organs / diseases (additional tumor types with over-presentation)” value in series [1] is “AML, HNSCC”.

With “146 (GLLQQPPAL; listed as Homo sapiens) [compound 146]”, in the series with NHL samples, the “Peptide Presentation” value is “+++”. For the same substance, in series [1], the Other relevant organs/diseases entry is listed as “AML” and the “Other relevant organs / diseases (additional tumor types with over-presentation)” value is “HNSCC”.

With “34 (LLWEDGVTEA; listed as Homo sapiens) [compound 34]”, in the series on NHL samples, the “Peptide Presentation” value was “+++”. In series [1], the Other relevant organs/diseases entry is “CRC, CLL, Melanoma, Esophageal Cancer, Urinary bladder cancer, Uterine Cancer, Gallbladder Cancer, Bile Duct Cancer”.

As for “115 (LLIDIIHFL; listed as Homo sapiens) [compound 115]”, in the series on NHL samples, the “Peptide Presentation” value is reported as “+++”. Further, the “Other relevant organs / diseases (additional tumor types with over-presentation)” value in series [1] is “AML”.

“110 (YQYPFVLGL; listed as Homo sapiens) [compound 110]”: the “Peptide Presentation” value with NHL samples was “+++”. For the same substance, in series [1], the Other relevant organs/diseases result is “Uterine Cancer” and the “Other relevant organs / diseases (additional tumor types with over-presentation)” value is listed as “HNSCC”.

In the case of “11 (GLDTVVALL; listed as Homo sapiens) [compound 11]”, the “Peptide Presentation” value in the series on NHL samples was “+++”. Besides, in series [1], the Other relevant organs/diseases entry is “CRC, CLL, AML, BRCA, Uterine Cancer” and the “Other relevant organs / diseases (additional tumor types with over-presentation)” value is reported as “HNSCC”.

In the case of “81 (FIFSYITAV; listed as Homo sapiens) [compound 81]”, the “Peptide Presentation” value in the series with NHL samples was “+++”. The Other relevant organs/diseases entry in series [1] is recorded as “CLL”.

Consider “292 (KLINSQISL; listed as Homo sapiens) [compound 292]”, for which, in the series with NHL samples, the “Peptide Presentation” value is given as “++”. Moreover, in series [1], the Other relevant organs/diseases entry is given as “CLL” and the “Other relevant organs / diseases (additional tumor types with over-presentation)” value is on record as “AML”.

Consider “88 (GLFDNRSGLPEA; listed as Homo sapiens) [compound 88]”, for which, in the series on NHL samples, the “Peptide Presentation” value is given as “+++”. In series [1], the Other relevant organs/diseases result was “Urinary bladder cancer, Uterine Cancer” and the “Other relevant organs / diseases (additional tumor types with over-presentation)” value is reported as “AML, HNSCC”.

Regarding “84 (FLQELQLEHA; listed as Homo sapiens) [compound 84]”, the “Peptide Presentation” value in the series on NHL samples is “+++”. Moreover, the Other relevant organs/diseases entry in series [1] is given as “CLL”.

On to “141 (FLGELTLQL; listed as Homo sapiens) [compound 141]”, for which, in the series on NHL samples, the “Peptide Presentation” value is given as “+++”. In series [1], the Other relevant organs/diseases result was “Melanoma”.

Consider “19 (VLEAILPLV; listed as Homo sapiens) [compound 19]”, for which, in the series with NHL samples, the “Peptide Presentation” value is “+++”. Besides, in series [1], the Other relevant organs/diseases entry is recorded as “CLL”.

Regarding “7 (NLLGMIFSM; listed as Homo sapiens) [compound 7]”, in the series with NHL samples, the “Peptide Presentation” value is recorded as “+++”. Also, the Other relevant organs/diseases entry in series [1] is on record as “CLL, AML, Melanoma, Urinary bladder cancer”.

Turning to “289 (SLLAANNLL; listed as Homo sapiens) [compound 289]”, the “Peptide Presentation” value in the series on NHL samples is given as “+++”. Also, in series [1], the Other relevant organs/diseases result is “HCC, Uterine Cancer, Gallbladder Cancer, Bile Duct Cancer” and the “Other relevant organs / diseases (additional tumor types with over-presentation)” value is “AML”.

Turning to “225 (GTYQDVGSLNIGDV; listed as Homo sapiens) [compound 225]”, the “Peptide Presentation” value in the series on NHL samples was “+++”. The Other relevant organs/diseases result in series [1] is given as “CLL”.

As for “201 (YLNISQVNV; listed as Homo sapiens) [compound 201]”, the “Peptide Presentation” value in the series with NHL samples was “++”. In series [1], the Other relevant organs/diseases entry is recorded as “CLL” and the “Other relevant organs / diseases (additional tumor types with over-presentation)” value is reported as “AML”.

As for “60 (SLLIDVITV; listed as Homo sapiens) [compound 60]”, in the series on NHL samples, the “Peptide Presentation” value was “+++”. In addition, in series [1], the Other relevant organs/diseases result is recorded as “CLL, Melanoma, Urinary bladder cancer, Uterine Cancer” and the “Other relevant organs / diseases (additional tumor types with over-presentation)” value is recorded as “NSCLC, SCLC, GC, CRC, PC, BRCA, AML”.

In the case of “204 (RLCDIVVNV; listed as Homo sapiens) [compound 204]”, the “Peptide Presentation” value in the series on NHL samples is “+++”. Also, the Other relevant organs/diseases entry in series [1] is “Melanoma”.

Consider “171 (TLLDVISAL; listed as Homo sapiens) [compound 171]”, for which the “Peptide Presentation” value in the series with NHL samples was “+++”. Further, in series [1], the Other relevant organs/diseases result is listed as “AML” and the “Other relevant organs / diseases (additional tumor types with over-presentation)” value is on record as “HNSCC”.

“279 (NLAGENILNPL; listed as Homo sapiens) [compound 279]”: the “Peptide Presentation” value with NHL samples is reported as “++”. Besides, in series [1], the Other relevant organs/diseases result is given as “CLL, Urinary bladder cancer, Uterine Cancer”.

As to “217 (AQFGAVLEV; listed as Homo sapiens) [compound 217]”, in the series on NHL samples, the “Peptide Presentation” value is recorded as “+”. Moreover, in series [1], the Other relevant organs/diseases result is on record as “AML, Melanoma” and the “Other relevant organs / diseases (additional tumor types with over-presentation)” value is listed as “RCC”.

On to “106 (VLYELLQYI; listed as Homo sapiens) [compound 106]”, for which the “Peptide Presentation” value with NHL samples was “+++”. Besides, in series [1], the Other relevant organs/diseases entry was “Gallbladder Cancer, Bile Duct Cancer” and the “Other relevant organs / diseases (additional tumor types with over-presentation)” value is listed as “HNSCC”.

“189 (SLSHLVPAL; listed as Homo sapiens) [compound 189]”: the “Peptide Presentation” value in the series on NHL samples is on record as “+”. Besides, in series [1], the Other relevant organs/diseases result is listed as “CLL”.

Turning to “259 (TVLDGLEFKV; listed as Homo sapiens) [compound 259]”, the “Peptide Presentation” value in the series on NHL samples was “+++”. Also, in series [1], the Other relevant organs/diseases result is given as “SCLC, CLL, AML, UMelanoma, terine Cancer” and the “Other relevant organs / diseases (additional tumor types with over-presentation)” value is on record as “HNSCC”.

In the case of “44 (FIIEEQSFL; listed as Homo sapiens) [compound 44]”, the “Peptide Presentation” value in the series with NHL samples is reported as “+++”. In addition, in series [1], the Other relevant organs/diseases result is recorded as “CLL, Esophageal Cancer, Gallbladder Cancer, Bile Duct Cancer” and the “Other relevant organs / diseases (additional tumor types with over-presentation)” value was “AML, HNSCC”.

Turning to “90 (HLDEVFLEL; listed as Homo sapiens) [compound 90]”, the “Peptide Presentation” value with NHL samples is “+++”. Further, the Other relevant organs/diseases entry in series [1] is “SCLC”.

For “99 (QLYDGATALFL; listed as Homo sapiens) [compound 99]”, the “Peptide Presentation” value in the series on NHL samples was “+++”. In addition, in series [1], the “Other relevant organs / diseases (additional tumor types with over-presentation)” value is given as “HNSCC”.

“148 (ICAGHVPGV; listed as Homo sapiens) [compound 148]”: the “Peptide Presentation” value with NHL samples is listed as “+++”. For the same substance, in series [1], the Other relevant organs/diseases entry was “AML, Uterine Cancer”.

With “233 (MLEVHIPSV; listed as Homo sapiens) [compound 233]”, in the series on NHL samples, the “Peptide Presentation” value is on record as “++”. In series [1], the Other relevant organs/diseases entry is recorded as “CLL”.

Turning to “291 (KIIDTAGLSEA; listed as Homo sapiens) [compound 291]”, the “Peptide Presentation” value with NHL samples is “+++”. In addition, in series [1], the Other relevant organs/diseases result is “CLL” and the “Other relevant organs / diseases (additional tumor types with over-presentation)” value is “HNSCC”.

As to “41 (ILASIFETV; listed as Homo sapiens) [compound 41]”, the “Peptide Presentation” value in the series with NHL samples is listed as “+++”. Besides, in series [1], the Other relevant organs/diseases result was “NSCLC, SCLC, RCC, CLL, AML, BRCA, Melanoma, Urinary bladder cancer, Gallbladder Cancer, Bile Duct Cancer” and the “Other relevant organs / diseases (additional tumor types with over-presentation)” value is “HNSCC”.

As to “77 (ALLDVSNNYGI; listed as Homo sapiens) [compound 77]”, the “Peptide Presentation” value in the series on NHL samples was “+++”. For the same substance, the Other relevant organs/diseases entry in series [1] is recorded as “HCC, CLL, Esophageal Cancer, OC, Urinary bladder cancer”.

Take “8 (ALYAVIEKA; listed as Homo sapiens) [compound 8]”: in the series with NHL samples, the “Peptide Presentation” value is “+++”. In addition, the Other relevant organs/diseases entry in series [1] was “CLL, AML”.

Regarding “169 (SSLEENLLHQV; listed as Homo sapiens) [compound 169]”, in the series with NHL samples, the “Peptide Presentation” value is “+++”. Moreover, the Other relevant organs/diseases result in series [1] is “HCC, CLL”.

As to “128 (KLFDASPTFFA; listed as Homo sapiens) [compound 128]”, the “Peptide Presentation” value in the series with NHL samples is “++”. In series [1], the Other relevant organs/diseases entry is “CLL, Gallbladder Cancer, Bile Duct Cancer” and the “Other relevant organs / diseases (additional tumor types with over-presentation)” value is “OC, HNSCC”.

“13 (HLVPASWKL; listed as Homo sapiens) [compound 13]”: the “Peptide Presentation” value in the series on NHL samples is “+++”. Besides, in series [1], the Other relevant organs/diseases result is “CLL, Melanoma”.

In the case of “219 (ALLELENSV; listed as Homo sapiens) [compound 219]”, the “Peptide Presentation” value in the series on NHL samples is listed as “+++”. Also, the Other relevant organs/diseases result in series [1] was “HCC, Uterine Cancer, Gallbladder Cancer, Bile Duct Cancer”.

With “6 (TLITLPLLFL; listed as Homo sapiens) [compound 6]”, in the series with NHL samples, the “Peptide Presentation” value was “+++”. For the same substance, in series [1], the Other relevant organs/diseases entry is given as “CLL, Melanoma”.

For the substance “56 (GLQDLLFSL; listed as Homo sapiens) [compound 56]”, in the series with NHL samples, the “Peptide Presentation” value is given as “++”. Moreover, in series [1], the Other relevant organs/diseases result is recorded as “CLL, AML” and the “Other relevant organs / diseases (additional tumor types with over-presentation)” value is given as “Melanoma”.

Consider “114 (GLSDISPST; listed as Homo sapiens) [compound 114]”, for which the “Peptide Presentation” value in the series with NHL samples is “+++”. The Other relevant organs/diseases result in series [1] is reported as “CLL, Uterine Cancer”.

As for “120 (VLLGTTWAL; listed as Homo sapiens) [compound 120]”, the “Peptide Presentation” value with NHL samples is “+++”. In addition, the Other relevant organs/diseases entry in series [1] is given as “AML”.
